This is one part of the list. Many values rest on one well or one pass, so single values are uncertain.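 The apoptosis fraction was the count of cleaved-PARP antibody-stained nuclei relative to all DNA-stained nuclei, imaged in 1,536-well plates. Screening doses were set so most cells survived, and baseline and induced cleaved-PARP levels vary greatly across cell lines.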
Columns and labels:
Experiment in all cases: cleaved PARP positive nuclei fraction relative to DMSO control; melanoma cells; higher = more apoptosis
Details in all cases: library dose: low library concentration; 72 h
501Mel = test system: 501Mel
A101D = test system: A101D
A2058 = test system: A2058
A375 = test system: A375
C32 = test system: C32
CBRC008 = test system: CBRC008 (line from a melanoma biopsy)
CBRC013 = test system: CBRC013 (line from a melanoma biopsy)
CBRC014 = test system: CBRC014 (line from a melanoma biopsy)
CBRC016 = test system: CBRC016 (line from a melanoma biopsy)
CBRC017 = test system: CBRC017 (line from a melanoma biopsy)
COLO792 = test system: COLO792
COLO800 = test system: COLO800
COLO829 = test system: COLO829
G361 = test system: G361
IPC-298 = test system: IPC-298
IST-MEL1 = test system: IST-MEL1
LB2518-MEL = test system: LB2518-MEL
LOXIMVI = test system: LOXIMVI
MEL-HO = test system: MEL-HO

Row | SMILES | cleaved PARP positive nuclei fraction (501Mel) [%] | cleaved PARP positive nuclei fraction (A101D) [%] | cleaved PARP positive nuclei fraction (A2058) [%] | cleaved PARP positive nuclei fraction (A375) [%] | cleaved PARP positive nuclei fraction (C32) [%] | cleaved PARP positive nuclei fraction (CBRC008) [%] | cleaved PARP positive nuclei fraction (CBRC013) [%] | cleaved PARP positive nuclei fraction (CBRC014) [%] | cleaved PARP positive nuclei fraction (CBRC016) [%] | cleaved PARP positive nuclei fraction (CBRC017) [%] | cleaved PARP positive nuclei fraction (COLO792) [%] | cleaved PARP positive nuclei fraction (COLO800) [%] | cleaved PARP positive nuclei fraction (COLO829) [%] | cleaved PARP positive nuclei fraction (G361) [%] | cleaved PARP positive nuclei fraction (IPC-298) [%] | cleaved PARP positive nuclei fraction (IST-MEL1) [%] | cleaved PARP positive nuclei fraction (LB2518-MEL) [%] | cleaved PARP positive nuclei fraction (LOXIMVI) [%] | cleaved PARP positive nuclei fraction (MEL-HO) [%]
1 | C[C@@H](Oc1cc(-c2cnn(C3CCNCC3)c2)cnc1N)c1c(Cl)ccc(F)c1Cl [Crizotinib] + COc1cc2c(Oc3ccc4[nH]c(C)cc4c3F)ncnc2cc1OCCCN1CCCC1 [cediranib] (first compound 0.2 µM, partner dose 0.4 µM) | 86.5 | 77.4 | 106 | 48.7 | 52.3 | 47.6 | 156 | 94.8 | 97.3 | 96.3 | 114 | 63.4 | 116 | 69.1 | 70.2 | 66.4 | 109 | 57.7 | 62.7
2 | CN1CCN(c2ccc3nc(-c4c(N)c5c(F)cccc5[nH]c4=O)[nH]c3c2)CC1 [Dovitinib] + Cc1cc(N2CCOCC2)cc2[nH]c(-c3c(NC[C@@H](O)c4cccc(Cl)c4)cc[nH]c3=O)nc12 [BMS536924] (first compound 0.1 µM, partner dose 0.2 µM) | 123 | 94.7 | 99.3 | 109 | 185 | 365 | 210 | 89.9 | 62.3 | 88 | 147 | 112 | 93.9 | 174 | 24.3 | 220 | 281 | 147 | 71.6
3 | Nc1ncn([C@H]2C[C@H](O)[C@@H](CO)O2)c(=O)n1 [decitabine] + CO[C@@H]1[C@H](N(C)C(=O)c2ccccc2)C[C@H]2O[C@]1(C)n1c3ccccc3c3c4c(c5c6ccccc6n2c5c31)C(=O)NC4 [Midostaurin] (first compound 0.1 µM, partner dose 0.08 µM) | 79 | 218 | 51.7 | 56.9 | 60 | 122 | 101 | 139 | 206 | 109 | 159 | 146 | 190 | 130 | 196 | 86.9 | 64.8 | 87.2 | 93.9
4 | Nc1ncn([C@H]2C[C@H](O)[C@@H](CO)O2)c(=O)n1 [decitabine] + C=CCn1c(=O)c2cnc(Nc3ccc(N4CCN(C)CC4)cc3)nc2n1-c1cccc(C(C)(C)O)n1 [MK1775] (first compound 0.1 µM, partner dose 0.02 µM) | 46.6 | 209 | 123 | 40.8 | 197 | 126 | 87.6 | 105 | 214 | 135 | 57 | 52.5 | 104 | 135 | 278 | 72.8 | 37.1 | 24.3 | 83.3
5 | Nc1nc(F)nc2c1ncn2[C@@H]1O[C@H](CO)[C@@H](O)[C@@H]1O [fludarabine] + CN(C)S(=O)(=O)c1ccc2c(c1)/C(=C/c1cc3c([nH]1)CCCC3)C(=O)N2 [SU6656] (first compound 0.2 µM, partner dose 0.4 µM) | 1570 | 69 | 243 | 7000 | 149 | 66.6 | 522 | 105 | 70.4 | 105 | 35.9 | 90.1 | 129 | 97.8 | 101 | 122 | 110 | 101 | 65.6
6 | CO[C@H]1C[C@@H]2CC[C@@H](C)[C@@](O)(O2)C(=O)C(=O)N2CCCC[C@H]2C(=O)O[C@H]([C@H](C)C[C@@H]2CC[C@@H](OCCO)[C@H](OC)C2)CC(=O)[C@H](C)/C=C(\C)[C@@H](O)[C@@H](OC)C(=O)[C@H](C)C[C@H](C)/C=C/C=C/C=C/1C [everolimus] + CN(NC(=O)CC(=O)NN(C)C(=S)c1ccccc1)C(=S)c1ccccc1 [STA4783] (first compound 0.02 µM, partner dose 0.006 µM) | 330 | 429 | 184 | 1760 | 178 | 1800 | 371 | 411 | 203 | 137 | 169 | 611 | 240 | 68.9 | 123 | 142 | 152 | 36 | 184
7 | CCCS(=O)(=O)Nc1ccc(F)c(C(=O)c2c[nH]c3ncc(Cl)cc23)c1F + CN(C)S(=O)(=O)c1ccc2c(c1)/C(=C/c1cc3c([nH]1)CCCC3)C(=O)N2 [SU6656] (first compound 0.08 µM, partner dose 0.4 µM) | 79.5 | 76.5 | 82.2 | 164 | 189 | 127 | 74.5 | 126 | 179 | 108 | 190 | 76.2 | 109 | 137 | 99.2 | 119 | 184 | 65.8 | 109
8 | C=C(c1ccc(C(=O)O)cc1)c1cc2c(cc1C)C(C)(C)CCC2(C)C [Bexarotene] + NC(=O)Nc1cc(-c2cccc(F)c2)sc1C(=O)N[C@H]1CCCNC1 [AZD7762] (first compound 2 µM, partner dose 0.02 µM) | 75.8 | 41.8 | 90 | 292 | 182 | 191 | 100 | 107 | 196 | 123 | 110 | 115 | 68.5 | 66.3 | 164 | 45.2 | 71.1 | 132 | 92.6
9 | C[C@@H](Oc1cc(-c2cnn(C3CCNCC3)c2)cnc1N)c1c(Cl)ccc(F)c1Cl [Crizotinib] + Cc1ccc(NC(=O)c2cccc(N(C)C)c2)cc1NC(=O)c1ccc(O)cc1 [ZM336372] (first compound 0.2 µM, partner dose 2 µM) | 38.5 | 192 | 71.2 | 46.8 | 100 | 90.7 | 84.7 | 120 | 89.7 | 120 | 124 | 88.3 | 70.9 | 59.8 | 58 | 39.8 | 106 | 122 | 85.5
10 | CNC(=O)c1cc(Oc2ccc(NC(=O)Nc3ccc(Cl)c(C(F)(F)F)c3)cc2)ccn1 [sorafenib] + COc1cc(Nc2ncc(F)c(Nc3ccc4c(n3)NC(=O)C(C)(C)O4)n2)cc(OC)c1OC [Tamatinib] (first compound 0.4 µM, partner dose 0.4 µM) | 129 | 97 | 182 | 89.8 | 150 | 135 | 115 | 84.1 | 85.6 | 90.2 | 132 | 45.4 | 68.6 | 77 | 118 | 88.5 | 87.7 | 82.8 | 112
11 | C=C(c1ccc(C(=O)O)cc1)c1cc2c(cc1C)C(C)(C)CCC2(C)C [Bexarotene] + OCCn1cc(-c2cnc3nnn(Cc4ccc5ncccc5c4)c3n2)cn1 [PF04217903] (first compound 2 µM, partner dose 1 µM) | 86.1 | 66.5 | 33.5 | 129 | 147 | 226 | 90.3 | 84 | 161 | 126 | 134 | 174 | 176 | 79.7 | 119 | 54.8 | 40.4 | 84.3 | 61.9
12 | CS(=O)(=O)CCNCc1ccc(-c2ccc3ncnc(Nc4ccc(OCc5cccc(F)c5)c(Cl)c4)c3c2)o1 [lapatinib] + CC1(C)NC(=O)N(c2ccc([N+](=O)[O-])c(C(F)(F)F)c2)C1=O [nilutamide] (first compound 0.8 µM, partner dose 1 µM) | 161 | 83.8 | 163 | 49.7 | 106 | 106 | 85.3 | 87 | 84.7 | 161 | 90.5 | 92.3 | 30.8 | 114 | 82.7 | 154 | 75.1 | 50 | 99.3
13 | CN1CCN(c2ccc3nc(-c4c(N)c5c(F)cccc5[nH]c4=O)[nH]c3c2)CC1 [Dovitinib] + COc1cc2c(Oc3ccc4[nH]c(C)cc4c3F)ncnc2cc1OCCCN1CCCC1 [cediranib] (first compound 0.1 µM, partner dose 0.4 µM) | 82.2 | 46.9 | 91 | 143 | 102 | 248 | 143 | 77.7 | 59.4 | 135 | 100 | 117 | 44 | 86.5 | 97.2 | 103 | 106 | 104 | 147
14 | Nc1ccn([C@@H]2O[C@H](CO)[C@@H](O)C2(F)F)c(=O)n1 [gemcitabine] + C[C@@H]1CCN(C(=O)CC#N)C[C@@H]1N(C)c1ncnc2[nH]ccc12 [CP690550] (first compound 0.0004 µM, partner dose 1 µM) | 40.4 | 85.4 | 80.1 | 94.2 | 128 | 76.1 | 95.7 | 138 | 239 | 251 | 118 | 177 | 102 | 160 | 62.9 | 143 | 23.6 | 63.9 | 90.2
15 | C=C(c1ccc(C(=O)O)cc1)c1cc2c(cc1C)C(C)(C)CCC2(C)C [Bexarotene] + CN(C)S(=O)(=O)c1ccc2c(c1)/C(=C/c1cc3c([nH]1)CCCC3)C(=O)N2 [SU6656] (first compound 2 µM, partner dose 0.4 µM) | 86.1 | 80.5 | 46.7 | 40.1 | 28.7 | 216 | 163 | 113 | 67 | 125 | 76.6 | 137 | 170 | 57 | 21.4 | 209 | 80.5 | 33.4 | 294

Taken from above:
cleaved PARP positive nuclei fraction (A101D) [%] with CN1CCN(c2ccc3nc(-c4c(N)c5c(F)cccc5[nH]c4=O)[nH]c3c2)CC1 [Dovitinib] + Cc1cc(N2CCOCC2)cc2[nH]c(-c3c(NC[C@@H](O)c4cccc(Cl)c4)cc[nH]c3=O)nc12 [BMS536924] (first compound 0.1 µM, partner dose 0.2 µM) is entered as 94.7
cleaved PARP positive nuclei fraction (A101D) [%] with CCCS(=O)(=O)Nc1ccc(F)c(C(=O)c2c[nH]c3ncc(Cl)cc23)c1F + CN(C)S(=O)(=O)c1ccc2c(c1)/C(=C/c1cc3c([nH]1)CCCC3)C(=O)N2 [SU6656] (first compound 0.08 µM, partner dose 0.4 µM) is entered as 76.5
